Source: the supplement of paper PMC10849652
The other results are listed elsewhere or left out.

Chains of the proteins cited; added tags and fusions are not shown. Lines headed by an entry give the natural chain unless they say otherwise; changes in a name come on top.
UniProt Q9NUP9: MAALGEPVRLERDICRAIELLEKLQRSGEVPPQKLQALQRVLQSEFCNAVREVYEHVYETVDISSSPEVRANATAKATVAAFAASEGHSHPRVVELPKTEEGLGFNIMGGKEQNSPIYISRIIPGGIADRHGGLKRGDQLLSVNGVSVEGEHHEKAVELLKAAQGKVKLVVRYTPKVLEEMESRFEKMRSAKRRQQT
UniProt P02750: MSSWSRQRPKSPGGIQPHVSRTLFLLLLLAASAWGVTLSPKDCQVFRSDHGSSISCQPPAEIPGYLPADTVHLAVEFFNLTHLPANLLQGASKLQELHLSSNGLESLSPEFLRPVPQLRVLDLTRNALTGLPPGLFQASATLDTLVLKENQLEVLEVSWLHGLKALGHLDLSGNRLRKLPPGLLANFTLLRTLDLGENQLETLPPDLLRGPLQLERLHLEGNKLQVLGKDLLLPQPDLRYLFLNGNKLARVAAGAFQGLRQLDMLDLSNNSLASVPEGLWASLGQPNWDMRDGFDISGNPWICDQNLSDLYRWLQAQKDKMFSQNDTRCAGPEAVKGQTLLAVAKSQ
UniProt Q96EK9: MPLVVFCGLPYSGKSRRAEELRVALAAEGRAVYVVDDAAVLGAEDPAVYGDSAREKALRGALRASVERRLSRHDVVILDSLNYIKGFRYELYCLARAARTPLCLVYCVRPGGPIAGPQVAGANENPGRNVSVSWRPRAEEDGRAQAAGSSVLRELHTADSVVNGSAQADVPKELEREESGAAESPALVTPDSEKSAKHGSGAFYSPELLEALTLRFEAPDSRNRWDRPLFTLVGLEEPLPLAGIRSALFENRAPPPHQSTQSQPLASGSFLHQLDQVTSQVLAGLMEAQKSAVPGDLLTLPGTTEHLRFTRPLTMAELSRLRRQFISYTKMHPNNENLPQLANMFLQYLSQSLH
UniProt Q15031: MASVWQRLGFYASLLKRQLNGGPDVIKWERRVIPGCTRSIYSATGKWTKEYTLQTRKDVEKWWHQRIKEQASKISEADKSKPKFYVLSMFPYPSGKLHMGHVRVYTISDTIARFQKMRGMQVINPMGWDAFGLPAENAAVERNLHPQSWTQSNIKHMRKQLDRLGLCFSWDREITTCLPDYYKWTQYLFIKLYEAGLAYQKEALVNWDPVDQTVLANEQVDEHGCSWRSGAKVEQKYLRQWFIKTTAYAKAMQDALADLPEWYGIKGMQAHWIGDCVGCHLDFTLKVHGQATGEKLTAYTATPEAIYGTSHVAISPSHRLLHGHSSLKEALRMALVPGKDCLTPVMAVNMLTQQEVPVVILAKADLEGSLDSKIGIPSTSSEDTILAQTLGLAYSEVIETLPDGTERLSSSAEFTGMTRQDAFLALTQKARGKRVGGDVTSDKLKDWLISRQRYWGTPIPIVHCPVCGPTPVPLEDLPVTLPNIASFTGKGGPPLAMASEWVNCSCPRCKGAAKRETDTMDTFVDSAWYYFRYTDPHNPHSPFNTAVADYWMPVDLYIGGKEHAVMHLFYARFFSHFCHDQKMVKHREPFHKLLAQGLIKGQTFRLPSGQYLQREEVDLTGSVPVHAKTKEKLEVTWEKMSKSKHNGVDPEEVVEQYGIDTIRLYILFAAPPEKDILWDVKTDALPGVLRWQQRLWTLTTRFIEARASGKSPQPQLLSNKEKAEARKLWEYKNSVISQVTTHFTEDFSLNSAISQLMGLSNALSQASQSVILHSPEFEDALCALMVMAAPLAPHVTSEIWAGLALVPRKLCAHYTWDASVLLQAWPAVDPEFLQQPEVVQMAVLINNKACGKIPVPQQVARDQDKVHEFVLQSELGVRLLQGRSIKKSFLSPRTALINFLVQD
UniProt P53671: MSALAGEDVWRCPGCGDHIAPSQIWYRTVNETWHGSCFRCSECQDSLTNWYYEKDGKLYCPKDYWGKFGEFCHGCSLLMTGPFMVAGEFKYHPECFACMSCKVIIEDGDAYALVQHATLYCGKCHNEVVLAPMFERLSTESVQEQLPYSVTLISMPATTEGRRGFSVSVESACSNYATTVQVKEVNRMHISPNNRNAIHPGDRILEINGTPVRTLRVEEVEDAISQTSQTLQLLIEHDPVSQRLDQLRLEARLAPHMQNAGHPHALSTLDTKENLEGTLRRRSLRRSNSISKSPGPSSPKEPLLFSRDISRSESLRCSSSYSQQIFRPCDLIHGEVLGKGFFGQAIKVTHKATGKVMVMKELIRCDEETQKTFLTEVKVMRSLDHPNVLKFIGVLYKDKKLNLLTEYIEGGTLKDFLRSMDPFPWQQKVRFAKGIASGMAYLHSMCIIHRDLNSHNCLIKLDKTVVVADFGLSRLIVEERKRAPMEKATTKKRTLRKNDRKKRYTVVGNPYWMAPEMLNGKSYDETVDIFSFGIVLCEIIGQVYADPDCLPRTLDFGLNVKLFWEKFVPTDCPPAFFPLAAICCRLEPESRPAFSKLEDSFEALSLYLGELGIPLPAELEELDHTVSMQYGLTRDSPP
UniProt Q7L5N7: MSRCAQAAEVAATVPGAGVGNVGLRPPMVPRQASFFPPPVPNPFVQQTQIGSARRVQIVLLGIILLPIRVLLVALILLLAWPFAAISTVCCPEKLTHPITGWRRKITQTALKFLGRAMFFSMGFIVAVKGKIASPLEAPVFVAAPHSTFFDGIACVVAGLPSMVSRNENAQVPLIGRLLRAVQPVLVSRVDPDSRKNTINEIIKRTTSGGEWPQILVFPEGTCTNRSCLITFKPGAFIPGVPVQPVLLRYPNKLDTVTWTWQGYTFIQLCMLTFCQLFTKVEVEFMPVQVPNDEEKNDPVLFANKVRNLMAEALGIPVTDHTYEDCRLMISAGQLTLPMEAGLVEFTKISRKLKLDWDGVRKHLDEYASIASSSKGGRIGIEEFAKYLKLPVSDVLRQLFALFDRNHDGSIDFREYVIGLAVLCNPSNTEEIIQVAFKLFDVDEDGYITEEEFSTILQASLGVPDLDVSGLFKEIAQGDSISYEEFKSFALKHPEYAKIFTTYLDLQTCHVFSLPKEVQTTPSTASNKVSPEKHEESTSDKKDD
UniProt P48059, whole entry, looked up: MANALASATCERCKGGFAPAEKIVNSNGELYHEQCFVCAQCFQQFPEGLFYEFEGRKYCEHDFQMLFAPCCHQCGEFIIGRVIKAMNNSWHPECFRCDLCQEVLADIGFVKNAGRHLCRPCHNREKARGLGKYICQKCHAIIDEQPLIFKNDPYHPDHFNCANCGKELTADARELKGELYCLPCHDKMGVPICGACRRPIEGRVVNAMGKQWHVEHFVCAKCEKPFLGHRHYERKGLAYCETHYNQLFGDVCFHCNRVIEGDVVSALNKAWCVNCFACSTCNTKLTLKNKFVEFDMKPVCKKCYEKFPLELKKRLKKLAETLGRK
UniProt Q9Y4W2: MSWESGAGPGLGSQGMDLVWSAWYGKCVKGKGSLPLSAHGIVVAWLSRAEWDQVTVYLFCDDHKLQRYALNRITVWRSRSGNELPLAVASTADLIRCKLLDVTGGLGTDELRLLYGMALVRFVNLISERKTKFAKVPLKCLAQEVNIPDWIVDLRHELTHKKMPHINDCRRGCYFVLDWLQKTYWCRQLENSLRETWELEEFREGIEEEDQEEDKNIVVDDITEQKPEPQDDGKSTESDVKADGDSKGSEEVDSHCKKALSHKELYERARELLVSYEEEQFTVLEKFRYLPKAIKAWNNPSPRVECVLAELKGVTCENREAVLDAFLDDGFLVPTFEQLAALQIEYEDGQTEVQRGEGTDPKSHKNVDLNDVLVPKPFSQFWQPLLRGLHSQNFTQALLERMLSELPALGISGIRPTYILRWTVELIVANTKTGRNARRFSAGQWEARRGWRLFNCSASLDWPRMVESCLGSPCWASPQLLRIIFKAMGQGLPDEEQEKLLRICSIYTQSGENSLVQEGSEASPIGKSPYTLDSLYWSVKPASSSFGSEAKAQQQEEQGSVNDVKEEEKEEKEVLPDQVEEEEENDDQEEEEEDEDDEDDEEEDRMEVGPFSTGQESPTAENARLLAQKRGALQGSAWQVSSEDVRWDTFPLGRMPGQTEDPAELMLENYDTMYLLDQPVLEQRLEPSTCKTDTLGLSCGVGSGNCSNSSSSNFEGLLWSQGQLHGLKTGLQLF
UniProt P30533, whole entry, looked up: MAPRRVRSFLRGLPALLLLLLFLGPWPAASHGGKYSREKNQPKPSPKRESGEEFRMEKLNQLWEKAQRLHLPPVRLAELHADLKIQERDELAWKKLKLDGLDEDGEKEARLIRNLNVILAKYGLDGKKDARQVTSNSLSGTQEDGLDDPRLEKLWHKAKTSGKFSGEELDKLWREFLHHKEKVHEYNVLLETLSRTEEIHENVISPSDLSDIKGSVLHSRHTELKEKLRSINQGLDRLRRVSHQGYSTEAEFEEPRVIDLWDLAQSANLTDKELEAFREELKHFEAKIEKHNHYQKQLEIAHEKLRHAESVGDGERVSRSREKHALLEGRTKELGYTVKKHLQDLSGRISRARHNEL
UniProt Q9H6V9: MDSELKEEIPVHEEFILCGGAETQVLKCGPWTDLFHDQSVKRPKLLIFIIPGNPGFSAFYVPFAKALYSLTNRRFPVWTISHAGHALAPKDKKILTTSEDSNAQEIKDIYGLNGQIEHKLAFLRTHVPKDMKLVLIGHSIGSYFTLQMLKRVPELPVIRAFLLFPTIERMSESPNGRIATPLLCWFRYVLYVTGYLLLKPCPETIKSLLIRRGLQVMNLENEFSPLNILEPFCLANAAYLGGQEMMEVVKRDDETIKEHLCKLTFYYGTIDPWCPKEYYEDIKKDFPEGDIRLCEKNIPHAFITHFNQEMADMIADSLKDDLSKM
UniProt P07942: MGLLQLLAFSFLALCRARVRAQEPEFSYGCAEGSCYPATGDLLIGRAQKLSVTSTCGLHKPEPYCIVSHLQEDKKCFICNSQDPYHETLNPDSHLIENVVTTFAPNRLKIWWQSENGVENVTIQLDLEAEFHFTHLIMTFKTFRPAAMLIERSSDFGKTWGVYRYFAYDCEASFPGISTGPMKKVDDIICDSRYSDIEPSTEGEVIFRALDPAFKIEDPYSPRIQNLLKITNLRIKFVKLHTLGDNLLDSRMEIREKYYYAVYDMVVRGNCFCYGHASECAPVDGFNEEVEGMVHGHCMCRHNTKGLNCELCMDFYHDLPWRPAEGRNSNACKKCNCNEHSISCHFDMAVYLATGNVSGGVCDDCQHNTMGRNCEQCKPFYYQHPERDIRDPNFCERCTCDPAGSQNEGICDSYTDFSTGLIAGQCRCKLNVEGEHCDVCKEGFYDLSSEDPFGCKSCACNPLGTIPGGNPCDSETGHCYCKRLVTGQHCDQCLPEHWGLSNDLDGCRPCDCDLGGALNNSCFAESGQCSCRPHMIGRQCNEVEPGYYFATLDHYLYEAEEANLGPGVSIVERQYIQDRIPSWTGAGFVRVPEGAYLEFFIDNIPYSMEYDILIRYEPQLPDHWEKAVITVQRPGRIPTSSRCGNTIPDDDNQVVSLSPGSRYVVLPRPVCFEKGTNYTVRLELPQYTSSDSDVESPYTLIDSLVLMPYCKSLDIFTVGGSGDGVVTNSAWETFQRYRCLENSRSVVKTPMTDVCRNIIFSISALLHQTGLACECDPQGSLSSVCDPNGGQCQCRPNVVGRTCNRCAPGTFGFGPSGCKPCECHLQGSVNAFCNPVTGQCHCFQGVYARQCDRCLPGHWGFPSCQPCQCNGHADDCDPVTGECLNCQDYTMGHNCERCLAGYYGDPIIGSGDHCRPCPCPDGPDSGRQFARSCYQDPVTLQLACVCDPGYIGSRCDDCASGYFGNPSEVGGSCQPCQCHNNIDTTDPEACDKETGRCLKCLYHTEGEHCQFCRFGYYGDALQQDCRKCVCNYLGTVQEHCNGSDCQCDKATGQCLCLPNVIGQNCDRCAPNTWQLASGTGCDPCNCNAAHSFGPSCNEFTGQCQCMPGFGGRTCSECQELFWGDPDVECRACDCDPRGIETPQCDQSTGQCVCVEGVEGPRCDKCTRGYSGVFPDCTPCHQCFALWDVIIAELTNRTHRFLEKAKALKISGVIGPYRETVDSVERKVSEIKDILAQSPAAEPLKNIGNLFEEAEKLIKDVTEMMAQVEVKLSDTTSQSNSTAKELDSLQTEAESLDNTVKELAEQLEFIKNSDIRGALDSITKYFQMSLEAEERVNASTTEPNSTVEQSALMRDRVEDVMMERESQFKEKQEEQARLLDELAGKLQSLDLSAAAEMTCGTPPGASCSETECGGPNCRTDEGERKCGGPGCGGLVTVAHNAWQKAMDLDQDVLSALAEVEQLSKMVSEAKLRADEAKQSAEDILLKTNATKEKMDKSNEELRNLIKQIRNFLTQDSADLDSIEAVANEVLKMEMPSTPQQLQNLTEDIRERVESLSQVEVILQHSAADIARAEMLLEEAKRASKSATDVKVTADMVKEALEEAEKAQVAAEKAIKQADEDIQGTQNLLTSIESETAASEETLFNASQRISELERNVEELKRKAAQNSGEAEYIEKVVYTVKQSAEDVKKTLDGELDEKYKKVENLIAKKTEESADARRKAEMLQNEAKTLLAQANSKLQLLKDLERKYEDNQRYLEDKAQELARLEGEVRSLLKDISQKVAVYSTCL

Key:
Test in all cases: log2 fold change, soluble protein after heating vs DMSO (PISA); higher = thermal stabilisation; K562 cells, 10 uM, 30 min; active = over 0.2 and 3.5 SD of the protein, either way, in both replicates (recomputed)
saracatinib = compound: CN1CCN(CCOc2cc(OC3CCOCC3)c3c(Nc4c(Cl)ccc5c4OCO5)ncnc3c2)CC1 [saracatinib]
Summary of the method: (§1)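 K562 cells at 2×10^6 cells/mL were given 10 μM compound for 30 min. Aliquots then went through 3 min of heating across 48°C-58°C, were pooled, and were extracted in PBS with 0.5% NP-40 at 4°C, and the supernatant after 21,000xg for 90 min was quantified by TMTpro 16plex LC-MS/MS with channel sums equalised. Thermal stability relative to control samples, from duplicates, is given as log2 fold change.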

sotrastaurin = compound: CN1CCN(c2nc(C3=C(c4c[nH]c5ccccc45)C(=O)NC3=O)c3ccccc3n2)CC1 [sotrastaurin]
Summary of the method: as §1

alvocidib = compound: CN1CC[C@H](c2c(O)cc(O)c3c(=O)cc(-c4ccccc4Cl)oc23)[C@H](O)C1 [alvocidib]
Summary of the method: as §1

Tubastatin A = compound: CN1CCc2c(c3ccccc3n2Cc2ccc(C(=O)NO)cc2)C1 [Tubastatin A]
Summary of the method: as §1

[1] = compound: CNC(=O)C1=CC=CC=C1NC2=NC(=NC=C2Cl)NC3=C(C=C(C=C3)N4CCOCC4)OC
Summary of the method: as §1

defactinib = compound: CNC(=O)c1ccc(Nc2ncc(C(F)(F)F)c(NCc3nccnc3N(C)S(C)(=O)=O)n2)cc1 [defactinib]
Summary of the method: as §1

rucaparib = compound: CNCc1ccc(-c2[nH]c3cc(F)cc4c3c2CCNC4=O)cc1 [rucaparib]
Summary of the method: as §1

[2] = compound: CNc1nc(-c2ccc3c(N)n[nH]c3c2)cc(N2C[C@@H](C(=O)NC3CCCCC3)CC[C@H]2C)n1
Summary of the method: as §1

encorafenib = compound: COC(=O)N[C@@H](C)CNc1nccc(-c2cn(C(C)C)nc2-c2cc(Cl)cc(NS(C)(=O)=O)c2F)n1 [encorafenib]
Summary of the method: as §1

[3] = compound: COC(=O)[C@H](CCSC)NC(=O)C1=C(C=C(C=C1)NC[C@H](CS)N)C2=CC=CC=C2
Summary of the method: as §1

Target | log2 fold change (saracatinib) | log2 fold change (sotrastaurin) | log2 fold change (alvocidib) | log2 fold change (Tubastatin A) | log2 fold change [1] | log2 fold change (defactinib) | log2 fold change (rucaparib) | log2 fold change [2] | log2 fold change (encorafenib) | log2 fold change [3]
LAMTOR1 (UniProt Q6IAA8) | inactive: -0.011 | inactive: -0.097 | inactive: -0.016 | inactive: 0.059 | inactive: -0.014 | inactive: 0.018 | inactive: -0.033 | inactive: -0.028 | inactive: -0.012 | inactive: -0.048
LIN7C (UniProt Q9NUP9) | inactive: 0.039 | inactive: -0.018 | inactive: -0.056 | inactive: -0.016 | inactive: -0.027 | inactive: 0.059 | inactive: -0.005 | inactive: -0.151 | inactive: -0.036 | inactive: 0.028
LRG1 (UniProt P02750) | inactive: -0.002 | inactive: 0.058 | inactive: 0.002 | inactive: 0.318 | inactive: 0.028 | inactive: -0.004 | inactive: -0.178 | inactive: -0.369 | inactive: -0.023 | inactive: -0.001
LARP7 isoform 3 (UniProt Q4G0J3) | inactive: 0.015 | inactive: -0.076 | active: -0.234 | inactive: -0.002 | inactive: -0.04 | active: -0.328 | inactive: -0.164 | inactive: 0.003 | inactive: 0.034 | inactive: -0.019
KTI12 (UniProt Q96EK9) | inactive: 0.018 | inactive: -0.023 | inactive: 0.07 | inactive: 0.027 | inactive: 0.008 | inactive: -0.017 | inactive: 0.086 | inactive: 0.039 | inactive: 0.038 | inactive: -0.03
LARS2 (UniProt Q15031) | inactive: 0.04 | inactive: 0.003 | inactive: -0.06 | inactive: -0.006 | inactive: 0.029 | inactive: -0.066 | inactive: -0.022 | inactive: 0.013 | inactive: 0.035 | inactive: -0.062
KYNU (UniProt Q16719) | inactive: 0.066 | inactive: 0.01 | inactive: -0.006 | inactive: 0.024 | inactive: -0.009 | inactive: -0.022 | inactive: 0.054 | inactive: -0.051 | inactive: -0.022 | inactive: 0.035
LPL (UniProt P06858) | inactive: -0.148 | inactive: 0.075 | inactive: -0.006 | inactive: 0.447 | inactive: -0.036 | inactive: -0.11 | inactive: 0.189 | inactive: 0.05 | inactive: -0.252 | inactive: 0
LIN28B (UniProt Q6ZN17) | inactive: -0.009 | inactive: 0.028 | inactive: 0.156 | inactive: 0.018 | inactive: -0.019 | inactive: 0.106 | inactive: 0.172 | inactive: 0.025 | inactive: 0.064 | inactive: 0.012
LACTB (UniProt P83111) | inactive: -0.078 | inactive: -0.121 | inactive: 0.1 | inactive: -0.015 | inactive: -0.004 | inactive: 0.074 | inactive: 0.149 | inactive: -0.035 | inactive: 0.007 | inactive: -0.254
LRRC4B (UniProt Q9NT99) | inactive: 0.06 | inactive: 0.02 | inactive: -0.038 | inactive: -0.172 | inactive: -0.238 | inactive: 0.063 | inactive: 0.069 | inactive: -0.028 | inactive: 0.007 | inactive: -0.028
LEMD2 (UniProt Q8NC56) | inactive: -0.048 | inactive: 0.004 | – | inactive: 0.014 | inactive: -0.058 | inactive: -0.126 | inactive: 0.11 | inactive: 0.041 | inactive: 0.023 | inactive: 0.013
LAP3 (UniProt P28838) | inactive: 0.028 | inactive: 0.038 | inactive: -0.014 | inactive: 0.094 | inactive: -0.019 | inactive: -0.018 | inactive: -0.045 | inactive: -0.021 | inactive: 0.004 | inactive: -0.003
LEPR (UniProt P48357) | inactive: 0.074 | inactive: 0.031 | inactive: 0.009 | inactive: 0.042 | inactive: 0.027 | inactive: -0.042 | inactive: -0.012 | inactive: -0.002 | inactive: -0.01 | inactive: 0.053
LAMTOR5 (UniProt O43504) | inactive: 0.017 | inactive: -0.097 | inactive: -0.127 | inactive: 0.255 | inactive: -0.026 | inactive: -0.024 | inactive: 0.036 | inactive: 0.014 | inactive: -0.067 | inactive: 0.224
LIMK2 isoform 3 (UniProt P53671) | inactive: -0.12 | inactive: 0.055 | inactive: 0.067 | inactive: -0.005 | inactive: -0.014 | inactive: 0.099 | inactive: -0.106 | inactive: -0.23 | inactive: -0.08 | inactive: 0.113

Target | log2 fold change (saracatinib) | log2 fold change (sotrastaurin) | log2 fold change (alvocidib) | log2 fold change (Tubastatin A) | log2 fold change [1] | log2 fold change (defactinib) | log2 fold change (rucaparib) | log2 fold change [2] | log2 fold change (encorafenib) | log2 fold change [3]
LRRC57 (UniProt Q8N9N7) | inactive: -0.028 | inactive: 0.002 | inactive: -0.046 | inactive: -0.014 | inactive: -0.047 | inactive: -0.053 | inactive: -0.035 | inactive: 0.004 | inactive: -0.016 | inactive: 0
LANCL3 (UniProt Q6ZV70) | inactive: 0.007 | inactive: 0.043 | inactive: -0.021 | – | – | – | – | inactive: -0.088 | – | –
LANCL1 (UniProt O43813) | inactive: 0.019 | inactive: 0.009 | inactive: -0.036 | inactive: -0.005 | inactive: -0.045 | inactive: -0.028 | inactive: 0.015 | inactive: -0.012 | inactive: -0.019 | inactive: -0.003
LPCAT2 (UniProt Q7L5N7) | inactive: -0.036 | inactive: 0.031 | inactive: 0.03 | inactive: 0.018 | inactive: 0.08 | inactive: -0.034 | inactive: -0.062 | inactive: 0.075 | inactive: 0.076 | inactive: 0.112
LIMS1 isoform 3 (UniProt P48059) | inactive: 0.008 | inactive: 0 | inactive: 0.01 | inactive: 0.022 | inactive: -0.017 | inactive: -0.009 | inactive: -0.083 | inactive: -0.032 | inactive: 0.006 | inactive: 0.019
LAS1L (UniProt Q9Y4W2) | inactive: -0.157 | inactive: 0.265 | inactive: 0.072 | inactive: 0.084 | – | inactive: -0.246 | – | inactive: -0.11 | – | inactive: 0.038
LCMT2 (UniProt O60294) | inactive: 0.127 | inactive: 0.04 | inactive: -0.033 | – | inactive: 0.024 | inactive: -0.067 | inactive: 0.075 | inactive: 0.233 | inactive: -0.153 | inactive: -0.376
LRPAP1 (UniProt P30533) | inactive: 0.014 | inactive: 0.061 | inactive: 0.011 | inactive: 0 | inactive: 0.003 | inactive: -0.012 | inactive: -0.058 | inactive: -0.041 | inactive: -0.015 | inactive: 0.027
LRP10 (UniProt Q7Z4F1) | inactive: -0.13 | inactive: -0.13 | inactive: -0.207 | – | – | – | – | inactive: -0.401 | – | –
LDAH isoform 2 (UniProt Q9H6V9) | inactive: 0.092 | inactive: 0.035 | – | inactive: -0.03 | inactive: -0.001 | inactive: -0.09 | inactive: -0.004 | inactive: -0.043 | inactive: 0.04 | inactive: -0.063
LAMB1 (UniProt P07942) | inactive: 0.05 | inactive: -0.009 | inactive: -0.042 | inactive: 0.057 | inactive: 0.033 | inactive: 0.005 | inactive: -0.006 | inactive: 0.11 | inactive: 0.013 | inactive: -0.017
L1RE1 (UniProt Q9UN81) | inactive: 0.118 | inactive: 0.012 | inactive: 0.122 | inactive: 0.042 | inactive: 0.004 | inactive: -0.008 | inactive: 0.073 | inactive: 0.034 | inactive: 0.105 | inactive: -0.052
LRFN4 (UniProt Q6PJG9) | inactive: 0.102 | inactive: 0.083 | inactive: -0.157 | inactive: 0.103 | inactive: -0.026 | – | – | inactive: -0.007 | – | –
LRIF1 (UniProt Q5T3J3) | inactive: 0.071 | inactive: 0.087 | inactive: -0.19 | inactive: 0.059 | inactive: -0.07 | inactive: -0.03 | inactive: 0.075 | inactive: -0.035 | inactive: -0.11 | inactive: -0.107
LDHB (UniProt P07195) | inactive: 0.013 | inactive: 0.052 | inactive: -0.01 | inactive: -0.013 | inactive: -0.037 | inactive: 0.013 | inactive: -0.008 | inactive: -0.019 | inactive: -0.023 | inactive: 0.026
LMAN2L isoform 2 (UniProt Q9H0V9) | inactive: -0.016 | inactive: -0.024 | inactive: -0.051 | inactive: 0.014 | inactive: -0.02 | inactive: -0.02 | inactive: 0.059 | inactive: -0.03 | inactive: -0.064 | inactive: 0.029

For reference, some entries already given:
Target | log2 fold change (saracatinib) | log2 fold change (sotrastaurin) | log2 fold change (alvocidib) | log2 fold change (Tubastatin A) | log2 fold change [1] | log2 fold change (defactinib) | log2 fold change (rucaparib) | log2 fold change [2] | log2 fold change (encorafenib) | log2 fold change [3]
LAS1L (UniProt Q9Y4W2) | inactive: -0.157 | inactive: 0.265 | inactive: 0.072 | inactive: 0.084 | – | inactive: -0.246 | – | inactive: -0.11 | – | inactive: 0.038
LCMT2 (UniProt O60294) | inactive: 0.127 | inactive: 0.04 | inactive: -0.033 | – | inactive: 0.024 | inactive: -0.067 | inactive: 0.075 | inactive: 0.233 | inactive: -0.153 | inactive: -0.376
LRPAP1 (UniProt P30533) | inactive: 0.014 | inactive: 0.061 | inactive: 0.011 | inactive: 0 | inactive: 0.003 | inactive: -0.012 | inactive: -0.058 | inactive: -0.041 | inactive: -0.015 | inactive: 0.027
LRP10 (UniProt Q7Z4F1) | inactive: -0.13 | inactive: -0.13 | inactive: -0.207 | – | – | – | – | inactive: -0.401 | – | –
LDAH isoform 2 (UniProt Q9H6V9) | inactive: 0.092 | inactive: 0.035 | – | inactive: -0.03 | inactive: -0.001 | inactive: -0.09 | inactive: -0.004 | inactive: -0.043 | inactive: 0.04 | inactive: -0.063
